{"source": "PubChem BioAssay AID2685", "about": "(National Center for Advancing Translational Sciences (NCATS), 2010)", "note": "Among all 320,000 compounds or so, about 2,100 (0.66%) were called active. Inconclusive means that the source gave no clear call. Such entries were picked first, then a sample of the others. The call rests on the fitted dose curve; in most records, active means well fitted inhibition curve with a large enough effect in the signal ratio, with a control signal flat (not every such curve was filed as active); inconclusive means small, poorly fitted or top-dose-only effect, or effect the other way, or a change in a side signal; inactive means flat fitted curve, though single readings scatter; the % refers to the signal ratio. Potencies beside an inconclusive call are fits to weak or partial responses and may not hold up. On the % scale 0 is the no-effect control and ±100 the full control effect; potency means the concentration at half of the fitted maximal effect.", "data": [{"assay": "qHTS Assay for Lipid Storage Modulators in Drosophila S3 Cells", "conditions": "BODIPY lipid droplet fluorescence, 18-24 h, cells fed with added oleic acid; lipid storage change, negative = inhibition: at 46.1 µM (top of the series) unless noted", "in_short": "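Drosophila S3 cells loaded with oleic acid (400 uM, as added) and compounds at several concentrations; lipid droplets imaged by 488-nm laser-scanning cytometry, 500–530 nm intensity and object ratio to cell channel. Percent activity normalized to 20 uM Triacsin C.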", "values": [{"smiles": "N#CCCCCn1c(-c2cncs2)nc2ccccc21", "lipid storage change, negative = inhibition": "inconclusive: -3.82%"}, {"smiles": "CCOC(=O)C1C(=O)C=C(c2ccc(C)cc2)CC1c1ccccc1", "note": "(stereo not drawn)", "lipid storage change, negative = inhibition": "inconclusive: 29.6%"}, {"smiles": "COc1ccccc1N(C(=O)CNC(=O)c1ccco1)C(C(=O)NC1CCCCC1)c1ccncc1", "note": "(stereo not drawn)", "lipid storage change, negative = inhibition": "inconclusive: 84.1%"}, {"smiles": "CCOCc1c(C(=O)OCC(=O)Nc2ccc(C)c(S(=O)(=O)N(C)C)c2)oc2ccccc12", "Potency": "inconclusive: 3.66 µM [activator, partial curve]"}, {"smiles": "COc1ccccc1/C=C(/C(=O)OCC(=O)NCc1ccccc1)c1ccccc1", "lipid storage change, negative = inhibition": "inconclusive: -17%"}, {"smiles": "CCCOC(=O)c1ccc(NC(=O)c2cnccn2)cc1", "lipid storage change, negative = inhibition": "inconclusive: 46.1%"}, {"smiles": "CCOC(=O)c1cn(-c2ccc(F)c(F)c2F)c2c(F)c(F)c(F)cc2c1=O", "lipid storage change, negative = inhibition": "inconclusive: -166%"}, {"smiles": "COc1ccc(/C=C2\\SC(=O)N(CCC(=O)Nc3ccccc3)C2=O)cc1OC", "Potency": "inconclusive: 29.1 µM [cytotoxic, single point]"}, {"smiles": "O=C(CCC(=O)Nc1cc(C(F)(F)F)ccc1Cl)N/N=C\\c1cc([N+](=O)[O-])ccc1O", "lipid storage change, negative = inhibition": "inconclusive: -10.6%"}, {"smiles": "CCN(C(=O)CCNC(=O)Cn1cnc2ccccc2c1=O)c1cccc(Cl)c1", "lipid storage change, negative = inhibition": "inconclusive: 85.8%"}, {"smiles": "COc1ccccc1C(C(=O)NC1CCCCC1)N(C(=O)c1csnn1)C1CC1", "note": "(stereo not drawn)", "lipid storage change, negative = inhibition": "inconclusive: 164%"}, {"smiles": "O=C(O)COc1ccccc1/C=N/NC(=O)c1cc2ccccc2cc1O", "lipid storage change, negative = inhibition": "inconclusive: 0.205%"}, {"smiles": "Cc1ccc(/C=N/NC(=O)CCn2nc(C)cc2C)c(C)c1", "lipid storage change, negative = inhibition": "inconclusive: 11.1%"}, {"smiles": "O=C(O)c1ccccc1-c1ccccc1C(=O)Nc1ccc2c(c1)CCC2", "lipid storage change, negative = inhibition": "inconclusive: 19.7%"}, {"smiles": "CCc1ccccc1NC(=O)CN1CCN(C(=O)c2ccc(OCc3cn4ccccc4n3)cc2)CC1", "lipid storage change, negative = inhibition": "inconclusive"}, {"smiles": "CCCn1cc(S(=O)(=O)c2ccc(C)cc2)c(=O)c2cc(OC)c(OC)cc21", "lipid storage change, negative = inhibition": "inconclusive: -64.5%"}, {"smiles": "COc1ccc(-n2ccnc2)cc1", "lipid storage change, negative = inhibition": "inconclusive: 154%"}, {"smiles": "NS(=O)(=O)c1ccc(-c2ccc(C=C3C(=O)c4ccccc4C3=O)o2)cc1", "lipid storage change, negative = inhibition": "inconclusive: -16.9%"}, {"smiles": "O=C(NC1C2CCCC1CN(C1CC1)C2)c1ccc(Cl)cc1", "note": "(stereo not drawn)", "lipid storage change, negative = inhibition": "inconclusive: -72.7%"}, {"smiles": "O=c1[nH]cnc2nc3n(c12)CCCCC3", "lipid storage change, negative = inhibition": "inconclusive: -32.1%"}, {"smiles": "O=C(COC(=O)c1c(F)cccc1Cl)NC(=O)Nc1ccc2c(c1)OCCO2", "Potency": "inconclusive: 20.6 µM [activator, partial curve]"}, {"smiles": "CC(=O)Nc1nc2ccc(S(=O)(=O)N3CCCCC3)cc2s1", "lipid storage change, negative = inhibition": "inconclusive: 7.7%"}, {"smiles": "Cc1cc(C)cc(NC(=O)CN(C)CC(=O)N(CC(C)C)c2c(N)n(CC(C)C)c(=O)[nH]c2=O)c1", "Potency": "inconclusive: 29.1 µM [activator, single point]"}, {"smiles": "O=C(Nc1cccc2cccnc12)c1cccc2ccccc12", "Potency": "inconclusive: 1.46 µM [rising, partial curve, poor fit]"}, {"smiles": "CN(C)CCCn1c(N)c(S(=O)(=O)c2ccccc2)c2nc3ccccc3nc21", "Potency": "inconclusive: 6.51 µM [falling, single point]"}, {"smiles": "O=C(CSc1ccc2c(c1)OCCO2)Nc1ncccc1O", "lipid storage change, negative = inhibition": "inconclusive: -80.5%"}, {"smiles": "COc1ccc(/C=C/C(=O)N2CCCC2)cc1OC", "lipid storage change, negative = inhibition": "inconclusive: 3.21%"}, {"smiles": "COCCCNC(=O)c1c(F)c(F)c(F)c(F)c1F", "lipid storage change, negative = inhibition": "inconclusive: -7.08%"}, {"smiles": "CC(=O)Nc1ccc(NC2=Nc3ccccc3N3C2=Nc2c(c(C)nn2-c2ccccc2)C3c2ccccc2)cc1", "note": "(stereo not drawn)", "lipid storage change, negative = inhibition": "inconclusive: -5.7%"}, {"smiles": "c1ccc(Cn2ncc3c(N4CCCCC4)ncnc32)cc1", "lipid storage change, negative = inhibition": "inconclusive: 32.1%"}, {"smiles": "CCOC(=O)C1CCCN(c2c(NCCCN3CCCC(C)C3)c(=O)c2=O)C1", "note": "(stereo not drawn)", "lipid storage change, negative = inhibition": "inconclusive: -21.2%"}, {"smiles": "Cc1ccc(-c2nn3c(C)nnc3c3ccccc23)cc1S(=O)(=O)N(C)CCO", "lipid storage change, negative = inhibition": "inconclusive: -20.8%"}, {"smiles": "O=C(OCc1ccccc1Cl)C1CC(=O)N(Cc2ccco2)C1", "note": "(stereo not drawn)", "lipid storage change, negative = inhibition": "inconclusive: -0.343%"}, {"smiles": "Cc1ccc(SCC(=O)NC(=O)c2ccc(S(=O)(=O)N(C)C)cc2)cc1C", "Potency": "inconclusive: 6.51 µM [falling, single point]"}, {"smiles": "O=C(c1cc2ccccc2o1)N1CCN(C/C=C/c2ccccc2)CC1", "lipid storage change, negative = inhibition": "inconclusive: -20%"}, {"smiles": "CN(C)S(=O)(=O)c1ccc(C(=O)OCn2nnc3ccccc3c2=O)cc1", "lipid storage change, negative = inhibition": "inconclusive: 0.142%"}, {"smiles": "O=C(OCc1ccc(F)cc1)c1cc(=O)c2ccccc2o1", "lipid storage change, negative = inhibition": "inactive"}, {"smiles": "Cc1ccc(C)n1-c1ccc(C(=O)NC2CCN(Cc3ccccc3)CC2)cc1", "lipid storage change, negative = inhibition": "inconclusive: -4.83%"}, {"smiles": "COc1ccc2ccc(OCC(=O)Nc3cc(C)on3)cc2c1", "lipid storage change, negative = inhibition": "inconclusive: 12.8%"}, {"smiles": "Cc1cccnc1NC(=O)c1ccc(OCc2c(C)noc2C)cc1", "lipid storage change, negative = inhibition": "inconclusive: 35.9%"}, {"smiles": "CC(C)n1nc(C(=O)Nc2nc3ccc(S(C)(=O)=O)cc3s2)c2ccccc2c1=O", "lipid storage change, negative = inhibition": "inconclusive: -87.9%"}, {"smiles": "CN(c1ccc(C(=O)NCc2cccs2)cc1)S(=O)(=O)c1ccccc1", "lipid storage change, negative = inhibition": "inconclusive: -32.7% [at 0.00295 µM]"}, {"smiles": "CCN(CC(=O)Nc1ccc(OC)cc1)C(=O)Cc1cccs1", "lipid storage change, negative = inhibition": "inconclusive: 32.7%"}, {"smiles": "Cc1ccc2nc(NC(=O)C3CSC4(C)CCC(=O)N34)sc2c1", "note": "(stereo not drawn)", "lipid storage change, negative = inhibition": "inconclusive: 40%"}, {"smiles": "O=CN1CCN(C(=O)c2ccccc2Cl)CC1", "Potency": "active: 16.4 µM"}, {"smiles": "CCCNC(=O)c1oc2ccc3c(c2c1C)C(O)CC(C)(C)O3", "note": "(stereo not drawn)", "lipid storage change, negative = inhibition": "inactive"}, {"smiles": "CCCC[C@H]1COCCS(=O)(=O)N1Cc1ccccc1F", "lipid storage change, negative = inhibition": "inconclusive: -0.971%"}, {"smiles": "CC(=O)c1ccc(N2CCN(C(=O)c3ccc(OCc4c(C)noc4C)cc3)CC2)cc1", "lipid storage change, negative = inhibition": "inconclusive: 61.5%"}, {"smiles": "OC(Cn1cncn1)c1ccc(Cl)cc1", "note": "(stereo not drawn)", "lipid storage change, negative = inhibition": "inconclusive: -36.6%"}, {"smiles": "Cc1ccc(OCC(=O)Oc2c(C)cccc2C)cc1", "lipid storage change, negative = inhibition": "inconclusive: 265%"}, {"smiles": "Cc1cccn2c(=O)c3cc(C#N)c(=N)n(CCN4CCOCC4)c3nc12", "lipid storage change, negative = inhibition": "inconclusive: -53.2%"}, {"smiles": "CC(C)c1ccc(/C=C/c2[nH]c(=O)[nH]c(=O)c2[N+](=O)[O-])cc1", "Potency": "inconclusive: 25.9 µM [falling, partial curve, poor fit]"}, {"smiles": "CC(=O)Oc1c(C)c(=O)n(C)c2ccccc12", "lipid storage change, negative = inhibition": "inconclusive: 5.69%"}, {"smiles": "Cc1ccc2nc(NC3=NCN(C4CCCCC4)CN3)nc(C)c2c1", "Potency": "inconclusive: 20.6 µM [falling, single point]"}, {"smiles": "CNCc1ccccc1Sc1ccc(OC)cc1", "Potency": "inconclusive: 3.26 µM [falling, partial curve]"}, {"smiles": "Cc1nn2c(COc3ccc(NC(=O)c4ccccc4Cl)cc3)nnc2c2ccccc12", "Potency": "inconclusive: 0.164 µM [activator, full curve, poor fit]"}, {"smiles": "CCN(CC)S(=O)(=O)c1cccc(C(=O)Nc2cc(C)cc(C)c2)c1", "Potency": "inconclusive: 6.51 µM [cytotoxic, single point]"}, {"smiles": "Cc1ccc(C(=O)OCC(=O)N2CC(C)CC(C)C2)cc1S(=O)(=O)N1CCCCC1", "note": "(stereo not drawn)", "lipid storage change, negative = inhibition": "inconclusive"}, {"smiles": "COc1cccc(N2CCN(S(=O)(=O)c3ccc4c(c3)NC(=O)C(C)C(=O)N4)CC2)c1", "note": "(stereo not drawn)", "lipid storage change, negative = inhibition": "inconclusive: -37.1%"}, {"smiles": "Cc1cc(C)cc(Oc2ncnc3c2ncn3Cc2c(Cl)cccc2Cl)c1", "Potency": "inconclusive: 29.1 µM [falling, single point]"}, {"smiles": "O=C(c1oc2ccccc2c1CSCc1ccccc1)N1CCN(c2ncccn2)CC1", "lipid storage change, negative = inhibition": "inconclusive: 38.1%"}, {"smiles": "Nc1nonc1-n1nnc(C(=O)N/N=C/c2cc(Br)ccc2O)c1CSC1=NCCS1", "Potency": "inconclusive: 16.4 µM [falling, single point]"}, {"smiles": "CCN1C(=O)[C@@H]2[C@@H](c3ccc(SC4CCCCC4)cc3)N3CCC[C@@]3(C(=O)OC)[C@@H]2C1=O", "lipid storage change, negative = inhibition": "inconclusive: 17.1%"}, {"smiles": "O=C(Cn1cnc2cc([N+](=O)[O-])ccc2c1=O)Nc1cccc2ccccc12", "lipid storage change, negative = inhibition": "inconclusive: 23.6%"}, {"smiles": "O=C(NCCO)c1cccc2c1-c1ccccc1C2=O", "lipid storage change, negative = inhibition": "inconclusive: 6.98%"}, {"smiles": "CCCCOc1ccc(-c2nnc(N)s2)cc1", "lipid storage change, negative = inhibition": "inconclusive: 35.9%"}, {"smiles": "CCCCCC1CC(CC/C(C)=N/NC(N)=O)C(=O)O1", "note": "(stereo not drawn)", "lipid storage change, negative = inhibition": "inconclusive: -20.3%"}, {"smiles": "CCOc1ccc(/C=N/NC(=O)c2c(-c3ccccc3)noc2C)cc1", "lipid storage change, negative = inhibition": "inconclusive: -0.0515%"}, {"smiles": "N#C/C(=C\\c1ccc(Cl)s1)C(=O)N1CCN(c2ccccc2)CC1", "Potency": "inconclusive: 2.31 µM [falling, partial curve, poor fit]"}, {"smiles": "O=C(CN1C(=O)c2ccccc2S1(=O)=O)NCCSCc1c(F)cccc1Cl", "lipid storage change, negative = inhibition": "inconclusive: -5.04%"}, {"smiles": "O=C(O)c1ccccc1NCc1cccs1", "Potency": "inconclusive: 29.1 µM [activator, single point]"}, {"smiles": "CCc1cccc(NC(=O)Cn2c(-c3ccccc3)cc(C(C)=O)c2C)c1", "lipid storage change, negative = inhibition": "inconclusive: 19.1%"}, {"smiles": "COc1cc(/C=C/c2noc(-c3ccccc3O)n2)cc(OC)c1OC", "Potency": "inconclusive: 3.26 µM [activator, full curve, poor fit]"}, {"smiles": "CCOC(=O)c1oc2cccc(O)c2c1CN(Cc1ccccc1)C(C)=O", "lipid storage change, negative = inhibition": "inconclusive: 26.7%"}, {"smiles": "Cc1ccc(NC(=O)CCc2nnc3ccc(N4CCC5(CC4)OCCO5)nn23)cc1F", "Potency": "inconclusive: 0.231 µM [falling, full curve]"}, {"smiles": "CCn1c(=O)c2c(nc(SCC(=O)N3CCC(C)CC3)n2C)n(C)c1=O", "Potency": "inconclusive: 0.103 µM [falling, full curve, poor fit]"}, {"smiles": "CCCCCN(C(=O)CCC(=O)OCC(=O)N(C)Cc1ccccc1C)c1c(N)n(CCCC)c(=O)[nH]c1=O", "lipid storage change, negative = inhibition": "inconclusive"}, {"smiles": "COCCN(C(=O)CSCC(=O)Nc1ccc(C)cc1)c1c(N)n(CC(C)C)c(=O)[nH]c1=O", "lipid storage change, negative = inhibition": "inconclusive: -16.9%"}]}]}
